# Target: KCNQ1 (Homo sapiens, UniProt P51787)
# Test: TEVC of homomeric KCNQ1 expressed in Xenopus oocytes
# Format: cell-based
compound,measurement,value
"CC(C)CC(=O)O [IVA, isovaleric acid]",effect on KCNQ1 (in words),IVA-insensitive

# Reference: patent US12268683B2, “Compounds and methods for synergistic activation of M channels” (THE REGENTS OF THE UNIVERSITY OF CALIFORNIA, priority 2018, dated 2025)
